# Measured values reported in publication PMC11796345.
# Chains of the proteins cited; added tags and fusions are not shown.
# UniProt P06463: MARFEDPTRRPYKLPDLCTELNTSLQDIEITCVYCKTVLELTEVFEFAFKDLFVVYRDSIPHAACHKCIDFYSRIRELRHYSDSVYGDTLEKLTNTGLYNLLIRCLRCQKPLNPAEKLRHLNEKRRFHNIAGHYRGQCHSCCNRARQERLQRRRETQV
# UniProt P03126: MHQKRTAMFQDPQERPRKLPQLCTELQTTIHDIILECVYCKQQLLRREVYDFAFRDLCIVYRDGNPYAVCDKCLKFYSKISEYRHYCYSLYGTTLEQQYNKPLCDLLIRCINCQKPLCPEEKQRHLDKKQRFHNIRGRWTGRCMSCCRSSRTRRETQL
# UniProt Q9UKT5: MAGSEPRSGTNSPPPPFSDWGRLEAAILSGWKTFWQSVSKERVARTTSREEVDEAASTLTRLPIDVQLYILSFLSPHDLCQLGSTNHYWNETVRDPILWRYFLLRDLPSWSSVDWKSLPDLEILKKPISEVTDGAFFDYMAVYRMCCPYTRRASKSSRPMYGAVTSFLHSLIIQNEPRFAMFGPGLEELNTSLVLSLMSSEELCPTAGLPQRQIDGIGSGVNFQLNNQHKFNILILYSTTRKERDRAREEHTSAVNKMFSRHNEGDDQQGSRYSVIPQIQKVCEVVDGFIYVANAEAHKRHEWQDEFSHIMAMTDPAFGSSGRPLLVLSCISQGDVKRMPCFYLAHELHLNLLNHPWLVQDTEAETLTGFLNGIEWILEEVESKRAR
# No constants are given. Whether binding was seen depends on the method and setting. In cells and extracts the contact can be indirect. Some entries that bind do so weakly or less than the wild type. For some assays here: Tags and fused reporters may be left off the sequences shown.
# Tests used:
# [1] = target: GFP-tagged HPV-18E6, full length (HPV-18) (UniProt P06463); test: co-IP; ubiquitination assay: 293 E6AP K/O cells stably expressing GFP-18E6, transfected with HA-UB with or without Flag-FBXO4; anti-GFP precipitation; FBXO4 detected with anti-FBXO4
# [2] = target: GFP-tagged HPV-18E6, full length (HPV-18) (UniProt P06463); test: co-IP; HEK293 E6AP K/O cells with GFP, GFP-18E6 or its mutants and Flag-FBXO4; CBZ 20 nM for 5 h; anti-GFP antibody overnight at 4°C, protein G beads; FBXO4 detected with anti-FBXO4
# [3] = target: GFP-tagged HPV-18E6, full length (HPV-18) (UniProt P06463); test: co-IP; HEK293 E6AP K/O cells stably expressing GFP-18E6, transfected with Flag-FBXO4 and HA-E6AP; CBZ 20 nM for 5 h; anti-GFP precipitation; western blot
# [4] = target: GST-tagged HPV-16E6 (HPV-16) (UniProt P03126); test: pull-down; GST-tagged HPV-11, -16, -18 E6 or GST on glutathione agarose, incubated with extract of HEK293 E6AP K/O cells expressing Flag-FBXO4 (overnight at 4°C by the results; 2 h at room temperature by the methods); lysis buffer 50 mM HEPES pH 7.4, 150 mM NaCl, 1 mM MgCl2, 1% Triton X-100; only the target purified
# [5] = target: GST-tagged HPV-18E6 (HPV-18) (UniProt P06463); test: as above
# [6] = target: T1, GST-tagged HPV-11E6 (HPV-11) (UniProt P04019); test: as above
# T1 sequence: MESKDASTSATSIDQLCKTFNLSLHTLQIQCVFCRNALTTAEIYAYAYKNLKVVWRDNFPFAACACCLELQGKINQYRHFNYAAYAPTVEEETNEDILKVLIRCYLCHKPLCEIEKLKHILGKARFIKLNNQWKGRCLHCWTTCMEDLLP
# [7] = target: GST-tagged HPV-18E6 (HPV-18) (UniProt P06463); test: pull-down; GST-18E6 or GST alone incubated with extracts of HEK293 E6AP K/O cells transfected with HA-E6AP, Flag-FBXO4 or both; western blot; only the target purified
# [8] = target: Flag-tagged FBXO4 (human) (UniProt Q9UKT5); test: co-IP; HEK293 E6AP K/O cells with GFP or GFP-18E6 and Flag-FBXO4; CBZ 20 nM for 5 h; anti-Flag immobilized on agarose beads; blot with anti-GFP
# [9] = target: endogenous FBXO4 of HeLa cells (human (endogenous in HeLa)) (UniProt Q9UKT5); test: co-IP; HeLa cells, siLuci (control; E6AP present), 72 h; lysate precipitated with anti-FBXO4 (anti-GFP as control antibody) overnight at 4°C; endogenous proteins
# [10] = target: endogenous FBXO4 of HeLa cells (human (endogenous in HeLa)) (UniProt Q9UKT5); test: co-IP; HeLa cells, siE6AP (E6AP silenced), 72 h; lysate precipitated with anti-FBXO4 (anti-GFP as control antibody) overnight at 4°C; endogenous proteins
# [11] = target: GST-tagged HPV-18E6 (HPV-18) (UniProt P06463); test: pull-down; purified GST-18E6 or GST alone with in vitro translated FBXO4; immunoblot with anti-FBXO4; only the target purified
substance,measurement,setting,value
Flag-tagged FBXO4 (from UniProt Q9UKT5 1-387),binding,[1],binds
same,binding,[2],binds
same,binding,[3],binds
same,binding,[4],binds
same,binding,[5],binds
same,binding,[6],binds
same,binding,[7],binds
"GFP-tagged HPV-18E6, full length (from UniProt P06463 1-158)",binding,[8],binds
endogenous HPV-18E6 of HeLa cells (from UniProt P06463 1-158),binding,[9],binds weakly
same,binding,[10],binds
in vitro translated FBXO4 (from UniProt Q9UKT5 1-387),binding,[11],binds
